# Data taken from PMC7819943, “Rice protein-binding microarrays: a tool to detect cis-acting elements near promoter regions in rice”.
# The chains behind the UniProt entries cited, without tags or fusion partners.
# UniProt Q0JBA9, entry or part of it: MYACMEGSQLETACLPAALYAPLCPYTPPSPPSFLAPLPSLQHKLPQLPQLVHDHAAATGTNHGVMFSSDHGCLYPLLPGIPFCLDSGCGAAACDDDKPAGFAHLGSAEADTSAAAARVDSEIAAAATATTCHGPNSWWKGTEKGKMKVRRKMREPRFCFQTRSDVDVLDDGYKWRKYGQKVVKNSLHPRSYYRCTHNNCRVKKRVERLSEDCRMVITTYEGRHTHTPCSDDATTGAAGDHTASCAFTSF
# The other results are listed elsewhere or left out.
# Molecular target: OsWRKY34 (Oryza sativa, UniProt Q0JBA9 1-250)
# Assay: protein-binding microarray (RPBM); PBS, 2% BSA, 51.3 ng/ul salmon testes DNA, 50 uM zinc acetate, 200 nM TF, 25 C, 1 h; high values mean tight binding
# Settings: protein: recombinant; tags: N-terminal polyhistidine and DsRed monomer fusion (pET32a); label: CyDye5-dUTP incorporated in the synthesized complementary strand; 3' TTTTT single-stranded linker to array surface; dsDNA, one strand shown
# Summary of the method: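 The binding signal is fluorescence intensity per array feature (arbitrary units). Readings came from an Axon 4000B scanner after a washed, 2% BSA-blocked, double-stranded custom Agilent array had been incubated for 1 h at 25 °C with 200 nM protein and 50 µM zinc acetate. The protein was a Ni–NTA-purified transcription factor fused N-terminally to polyhistidine and DsRed, expressed in E. coli BL21-CodonPlus.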
row,Sequence,binding signal
1,TATCCCGTTTCTCTGTCTTTTGCTCCCCGGCGCGCGCCAGCGGAGTCACCTAGTGCAG,13300 fluorescence intensity (a.u.)
2,AATATCTTGCGTGCTGGCTTTTCGTAAAGTTAAATCCTTTCGGAGTCACCTAGTGCAG,8430 fluorescence intensity (a.u.)
3,CGCTTTGTTAGCATTGTAGGGGAGGGATAGTTTGCATATCCGGAGTCACCTAGTGCAG,11200 fluorescence intensity (a.u.)
4,CCTTGCTAGGAGGACGAACGCCGGCGGCGGGGAGGGGATGCGGAGTCACCTAGTGCAG,10400 fluorescence intensity (a.u.)
5,ACCGCCTACCGCATCTCCTCGCGTTCACACCACGCACCCGCGGAGTCACCTAGTGCAG,10600 fluorescence intensity (a.u.)
6,GCCTCAACATGTCGCCACCCGTTGTTTCCACGGCCTTTTCCGGAGTCACCTAGTGCAG,11100 fluorescence intensity (a.u.)
7,AGGCTGAGCGAATGTTTTGTTTGTTTTGCTCGTCAATTCTCGGAGTCACCTAGTGCAG,8790 fluorescence intensity (a.u.)
8,TCTAGTCACCTTCTCACATGGTATCCCGACCGCAATAGACCGGAGTCACCTAGTGCAG,8460 fluorescence intensity (a.u.)
9,GTTCCTTTGCTTGTTCTTGGCAAACTAAGCTTGCTTGCTACGGAGTCACCTAGTGCAG,10600 fluorescence intensity (a.u.)
10,CCATTTTCTTCTTCCCTTTTTTACTTTCTCTCTCTTGCATCGGAGTCACCTAGTGCAG,8970 fluorescence intensity (a.u.)
11,CACCGGCACGAGCTCGCCGCGCTTTCCATTATTAGCCGCTCGGAGTCACCTAGTGCAG,8450 fluorescence intensity (a.u.)
12,CCGCCGCCCTCGCCGCTGCCACGCCGCCGCCGCCGCCCTTCGGAGTCACCTAGTGCAG,8780 fluorescence intensity (a.u.)
13,AGAAGTCTAGCTGTCTCGAGGCCACACAACTCACCAGTTTCGGAGTCACCTAGTGCAG,8610 fluorescence intensity (a.u.)
14,AACTAGTATATCTCTCGCTTCTCTCTATCATTCTCCGTTGCGGAGTCACCTAGTGCAG,10100 fluorescence intensity (a.u.)
15,GATGTCCCTGTCTTGCTTCTCATCACCTGCACCCACCACACGGAGTCACCTAGTGCAG,9130 fluorescence intensity (a.u.)
16,CATTATCGTCGTCGTCGTCGTCGTAGTCATGTCGTGGGGCCGGAGTCACCTAGTGCAG,8180 fluorescence intensity (a.u.)
17,CTAGTTGGTCTAGGTTCGAAATCTCACCCCTTTTATTTATCGGAGTCACCTAGTGCAG,8900 fluorescence intensity (a.u.)
18,ATTAAACATATGATCTTTTTGTGTGTTTTGAGTGTTAGTTCGGAGTCACCTAGTGCAG,9160 fluorescence intensity (a.u.)
19,CTTACAGTTTTATTACTCGTGCTGACGTAGATAATCTTATCGGAGTCACCTAGTGCAG,9900 fluorescence intensity (a.u.)
20,CTCTTCTTCGTTATGGTCCTTATGGTCAATCTGAATTAAACGGAGTCACCTAGTGCAG,9480 fluorescence intensity (a.u.)
21,GGGTGCTAATTCGGTTATTCCTTTCTTAATTGCTACTTCCCGGAGTCACCTAGTGCAG,8140 fluorescence intensity (a.u.)

# 2 successive entries from above, for reference:
row,Sequence,binding signal
7,AGGCTGAGCGAATGTTTTGTTTGTTTTGCTCGTCAATTCTCGGAGTCACCTAGTGCAG,8790 fluorescence intensity (a.u.)
8,TCTAGTCACCTTCTCACATGGTATCCCGACCGCAATAGACCGGAGTCACCTAGTGCAG,8460 fluorescence intensity (a.u.)

# Following part.

row,Sequence,binding signal
1,TCTCCTATCTTTGCTCCCGTGCTCACGCCGCCCCGCCCTTCGGAGTCACCTAGTGCAG,8620 fluorescence intensity (a.u.)
2,GCCGCGGCGGAGCTCCCGTTTCCGTTGCCGTCTCCGGCGCCGGAGTCACCTAGTGCAG,11000 fluorescence intensity (a.u.)
3,TCTTCTTCCTCACTCGCTGCCCACTCATTGGGAAAAATCCCGGAGTCACCTAGTGCAG,10300 fluorescence intensity (a.u.)
4,ATCCTTGTCTTTTGTCTGTTTTGATATCGTACTACGTAGACGGAGTCACCTAGTGCAG,11200 fluorescence intensity (a.u.)
5,ATCCATACTACATCATCCATATACCATCATCCTATATTTTCGGAGTCACCTAGTGCAG,9020 fluorescence intensity (a.u.)
6,TCCAATGTTCCCTAATCAATTTCATCTACTTTTTTAATACCGGAGTCACCTAGTGCAG,8140 fluorescence intensity (a.u.)
7,GTTATGGCCTTATTTTTAAGTGAACTATCCTGTCAATGTCCGGAGTCACCTAGTGCAG,8170 fluorescence intensity (a.u.)
8,CGTTTGCTACAAATTCAGGCCCATATCATCGTTCATGTCACGGAGTCACCTAGTGCAG,11600 fluorescence intensity (a.u.)
9,TTTCTTTCTAATTTTTTTAATCTTTCGCACACCTCTTTATCGGAGTCACCTAGTGCAG,9800 fluorescence intensity (a.u.)
10,GTGTTCTTATTACATAATTAGCTGCTGCCATTTTTTTTTACGGAGTCACCTAGTGCAG,8980 fluorescence intensity (a.u.)
11,ATTGTTTCTCCTTTACGCGTTTTAAGCTTTCCATCTTGAACGGAGTCACCTAGTGCAG,9480 fluorescence intensity (a.u.)
12,CTTAGTTCCGCCGGCAGTGATGCACTCGGTTTGACCGGAGCGGAGTCACCTAGTGCAG,8260 fluorescence intensity (a.u.)
13,GATATATATGGTCCTCTCACCAGCTGCCACATGCAAGCAACGGAGTCACCTAGTGCAG,8030 fluorescence intensity (a.u.)
14,CTTGATTGCTGATTAGTCAGCTGCCTGCGCTGCGTTCTCCCGGAGTCACCTAGTGCAG,8710 fluorescence intensity (a.u.)
15,GGCTCTCGAAACTTCCGGGCTCCGGCGACTCCGCCGGCCGCGGAGTCACCTAGTGCAG,9030 fluorescence intensity (a.u.)
16,CATTCACTTTTCCATTTCTGATGCCATGGGTCTTATTCCACGGAGTCACCTAGTGCAG,10900 fluorescence intensity (a.u.)
17,TTGTTGTCTTGGAGTTGGTCTTAGTTTTGTGGAACCCTACCGGAGTCACCTAGTGCAG,10800 fluorescence intensity (a.u.)
18,GGAGATGCGCTATACCAGGTTGTGTGGTTGAGGGAGGTGACGGAGTCACCTAGTGCAG,10200 fluorescence intensity (a.u.)
19,GGAGAGGATCAATCTTTACCACCTTCTTTGTTGTTTGATTCGGAGTCACCTAGTGCAG,11000 fluorescence intensity (a.u.)
20,ACCAGTAGCTAAGCCATCCATCCATCCATCGGCCGCGCACCGGAGTCACCTAGTGCAG,8780 fluorescence intensity (a.u.)
21,CGTGTGTGCCTGTGCCTCGAGGTTATTTCCCCGTCCGCTACGGAGTCACCTAGTGCAG,10700 fluorescence intensity (a.u.)

row,Sequence,binding signal
1,GTGTTCTTGCCCTTGCTTTGTAATCCAATTGTGATTTTGCCGGAGTCACCTAGTGCAG,8220 fluorescence intensity (a.u.)
2,TGTTTGACTTTTTTCTTGGTTAAAATTCTTTAAATTTGATCGGAGTCACCTAGTGCAG,18900 fluorescence intensity (a.u.)
3,TTTAGACTTCTTCCAACTGGAATGCGTTTGACCCTAACCACGGAGTCACCTAGTGCAG,8180 fluorescence intensity (a.u.)
4,ACCATTCCTACCACATCACACTTGATCTGCATTCTTCATCCGGAGTCACCTAGTGCAG,14000 fluorescence intensity (a.u.)
5,CCTTCCGTTTCCGTTCCGTTCCATTTCCCGTTCACACCCTCGGAGTCACCTAGTGCAG,9680 fluorescence intensity (a.u.)
6,CCTCTTTTGAACATTTTCCTAACTTCTACTCTTATTTTTCCGGAGTCACCTAGTGCAG,10800 fluorescence intensity (a.u.)
7,ATCTTTGCCTCGTTCGTCCTCCGGTTTTCTCCGCAGTTTCCGGAGTCACCTAGTGCAG,12500 fluorescence intensity (a.u.)
8,GTGGACTGTATTGATGATTTCCCATTATTTTTTATACCTTCGGAGTCACCTAGTGCAG,12600 fluorescence intensity (a.u.)
9,TTGTACCTTGATCCATTGGTTGGGCCAACATTTTTTACGACGGAGTCACCTAGTGCAG,12100 fluorescence intensity (a.u.)
10,ATTGCAGCCTTCGCCTCCTTTCCTTCAGGTACACATATTGCGGAGTCACCTAGTGCAG,9850 fluorescence intensity (a.u.)
11,CTCTCCCGCAGCCGCCCGCAAGATCGATCTGTCACTCATGCGGAGTCACCTAGTGCAG,8110 fluorescence intensity (a.u.)
12,AATCCTAGCATCTACCAAGTTCCTCGGACTCTTCGTCGTTCGGAGTCACCTAGTGCAG,11800 fluorescence intensity (a.u.)
13,GGACTCCCGTACACCGCCCAAACCTACTCAATGATATTCTCGGAGTCACCTAGTGCAG,8150 fluorescence intensity (a.u.)
14,TCGCCGCGCGCGCCCACTCCTCCGCGTCGCGTCACCCATGCGGAGTCACCTAGTGCAG,8620 fluorescence intensity (a.u.)
15,CCCCGCATAAACACTCTCACTGACGTGTGGGCCCCGCAGACGGAGTCACCTAGTGCAG,9860 fluorescence intensity (a.u.)
16,CTTTATATATATATGCACGCCCACCATCACCATCTAAACGCGGAGTCACCTAGTGCAG,8050 fluorescence intensity (a.u.)
17,CACCACTTCACCTGGATCCGCTCCGACCGCTGCGCTTCGTCGGAGTCACCTAGTGCAG,8690 fluorescence intensity (a.u.)
18,GTCTATCGTCCTGATGTTGCCCGTGTTGGAGTTGATTCACCGGAGTCACCTAGTGCAG,8080 fluorescence intensity (a.u.)
19,GTTGCTGCCGACGGAGCTCCTCGGCTTCTCAGTTCCACTTCGGAGTCACCTAGTGCAG,8110 fluorescence intensity (a.u.)
20,TGCTTTTTGGTATCTGCACATCCAATATTTGGGTTTTTTTCGGAGTCACCTAGTGCAG,8630 fluorescence intensity (a.u.)
21,AGTACTATACTTCTTTTACCTGTTTCATTGAAATAATTGCCGGAGTCACCTAGTGCAG,10500 fluorescence intensity (a.u.)

# A different layout for some results above:
row | Sequence | binding signal
3 | TTTAGACTTCTTCCAACTGGAATGCGTTTGACCCTAACCACGGAGTCACCTAGTGCAG | 8180 fluorescence intensity (a.u.)
6 | CCTCTTTTGAACATTTTCCTAACTTCTACTCTTATTTTTCCGGAGTCACCTAGTGCAG | 10800 fluorescence intensity (a.u.)
13 | GGACTCCCGTACACCGCCCAAACCTACTCAATGATATTCTCGGAGTCACCTAGTGCAG | 8150 fluorescence intensity (a.u.)
18 | GTCTATCGTCCTGATGTTGCCCGTGTTGGAGTTGATTCACCGGAGTCACCTAGTGCAG | 8080 fluorescence intensity (a.u.)
20 | TGCTTTTTGGTATCTGCACATCCAATATTTGGGTTTTTTTCGGAGTCACCTAGTGCAG | 8630 fluorescence intensity (a.u.)

# (listing goes on)

row,Sequence,binding signal
1,TTCCTGGGAGGGGTTTATGTGAGAAAGGCCATCGTATTCTCGGAGTCACCTAGTGCAG,9780 fluorescence intensity (a.u.)
2,ACTTCATGAACTTACGCTACGTTTCACCAAGTTTCATTTACGGAGTCACCTAGTGCAG,8840 fluorescence intensity (a.u.)
3,ATTCGCCTCCGCCGCCCTTCTGGCCACGTCATCTTATTAACGGAGTCACCTAGTGCAG,8540 fluorescence intensity (a.u.)
4,CTAAAATCATATATTGTATACTCCTTCCGTTTTATATTATCGGAGTCACCTAGTGCAG,10100 fluorescence intensity (a.u.)
5,ATGCAAATATTCTTCTCTCTTGAACTCTTGGTCTTGGTGACGGAGTCACCTAGTGCAG,8190 fluorescence intensity (a.u.)
6,TGCCTAGCTTCTTCTCATCTCGGCGCGGCGGCTGCGTCCGCGGAGTCACCTAGTGCAG,8180 fluorescence intensity (a.u.)
7,TGTGCCTCCGGATTTGACCTTTCCTCGAACCTTCTTCTTCCGGAGTCACCTAGTGCAG,13300 fluorescence intensity (a.u.)
8,GGACATATAGCCCTATATATGCACAACATTCATACCAATTCGGAGTCACCTAGTGCAG,8500 fluorescence intensity (a.u.)
9,GGAGAGGAGTGAGGAGGGATTGTGAGGTGGGGTCGGGGTGCGGAGTCACCTAGTGCAG,9030 fluorescence intensity (a.u.)
10,GGCCACACACTGATCTATTAATGCCTATCATATGCGCATCCGGAGTCACCTAGTGCAG,11800 fluorescence intensity (a.u.)
11,TTTCAAACCATTGGCAGGCTTCCACGCATGCATGTCTCTCCGGAGTCACCTAGTGCAG,9180 fluorescence intensity (a.u.)
12,TCGTAATCTAATATATATTTCCTGGTCCTATTACATAACCCGGAGTCACCTAGTGCAG,11600 fluorescence intensity (a.u.)
13,ACCCTTTTTTTTCTCCAAATTTTCTCCGTCTCATTCCCTACGGAGTCACCTAGTGCAG,9560 fluorescence intensity (a.u.)
14,CAGAGGATCCGCGTCCGCTCATCTGTCATCTCGTTCTTCTCGGAGTCACCTAGTGCAG,9900 fluorescence intensity (a.u.)
15,TTGTTTTCTACTCCTAATACTCTTTTGTCTGTCTCATCTGCGGAGTCACCTAGTGCAG,12400 fluorescence intensity (a.u.)
16,CGGAGAAGTCCGGGCAGGCAAGGGGATGGGGATGGGGATGCGGAGTCACCTAGTGCAG,12400 fluorescence intensity (a.u.)
17,GAAATACGCACATGGGGTGGGCGTGCTTCTACCATGCCTCCGGAGTCACCTAGTGCAG,8290 fluorescence intensity (a.u.)
18,TAAGCATTCAGCCTCTTACAACCCTTTATCATACTTGCTCCGGAGTCACCTAGTGCAG,8700 fluorescence intensity (a.u.)
19,TATCCGATCCATGGCGTTCTCTTGAGTCCAGAGAGTATTTCGGAGTCACCTAGTGCAG,8460 fluorescence intensity (a.u.)
20,GATGTACATTCCTCTTTTAATGCCTACACTATCGCAGCAACGGAGTCACCTAGTGCAG,8260 fluorescence intensity (a.u.)
21,TTTGCACCACGTACGCACACTTGTTCACGGGCCATAAATCCGGAGTCACCTAGTGCAG,8240 fluorescence intensity (a.u.)
